# PubChem BioAssay AID1259254, NCATS, 2017
# Aim: 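Gene knock-downs that lead to re-replication, shown by excess G2 DNA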 (primary screen)
# Cells: human HCT116 colorectal cancer cells
# Reagent: single siRNA against human genes
# Timing: 3 days
# Measured: 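Imaged Hoechst DNA stain sorts each cell into a cycle phase by DNA amount; per plate, G2 fraction set to 0% for non-targeting and 100% for GMNN siRNA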
# Direction: G2 robust z-score: higher = more G2 cells, more excess DNA replication
# Hit rule: 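Active siRNAs have a G2 robust z of 5 or more median absolute deviations over the median, which in these data means about 38% or higher of GMNN control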
# The whole screen tested about 59,000 reagents; this is a part drawn at random. Over the whole deposit, about 1,550 (2.6%) were called active. 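G2 share is only a proxy for re-replication; each gene was hit by three separate siRNAs, and active genes were retested.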 Entries without a mark were called inactive. The numbers tell different reagents against one gene apart. Further read-outs or replicates are left out here. Not given: the amount of reagent.
target gene,reagent no.,G2 robust z-score
NMNAT1 (nicotinamide nucleotide adenylyltransferase 1),1,-0.804
NMNAT1 (nicotinamide nucleotide adenylyltransferase 1),2,-0.869
NMNAT1 (nicotinamide nucleotide adenylyltransferase 1),3,-0.765
CDT1 (chromatin licensing and DNA replication factor 1),1,-0.924
CDT1 (chromatin licensing and DNA replication factor 1),2,-0.23
CDT1 (chromatin licensing and DNA replication factor 1),3,0.461
CBY2 (chibby family member 2),1,-0.745
CBY2 (chibby family member 2),2,-0.669
CBY2 (chibby family member 2),3,7 (active)
OR2H1 (olfactory receptor family 2 subfamily H member 1),1,-0.947
OR2H1 (olfactory receptor family 2 subfamily H member 1),2,1.15
OR2H1 (olfactory receptor family 2 subfamily H member 1),3,0.647
ZNF593 (zinc finger protein 593),1,0.981
ZNF593 (zinc finger protein 593),2,4.2
ZNF593 (zinc finger protein 593),3,-0.639
RPS28P4 (ribosomal protein S28 pseudogene 4),1,6.19 (active)
RPS28P4 (ribosomal protein S28 pseudogene 4),2,4.47
RPS28P4 (ribosomal protein S28 pseudogene 4),3,2.06
"REV3L (REV3 like, DNA directed polymerase zeta catalytic subunit)",1,3.2
"REV3L (REV3 like, DNA directed polymerase zeta catalytic subunit)",2,0.264
"REV3L (REV3 like, DNA directed polymerase zeta catalytic subunit)",3,0.00349
ZNF653 (zinc finger protein 653),1,-0.408
ZNF653 (zinc finger protein 653),2,0.969
ZNF653 (zinc finger protein 653),3,1.05
PWWP2B (PWWP domain containing 2B),1,-0.598
PWWP2B (PWWP domain containing 2B),2,0.462
PWWP2B (PWWP domain containing 2B),3,0.302
TAS2R8 (taste 2 receptor member 8),1,-0.644
TAS2R8 (taste 2 receptor member 8),2,-0.713
TAS2R8 (taste 2 receptor member 8),3,1.51
ZNF813 (zinc finger protein 813),1,-0.796
ZNF813 (zinc finger protein 813),2,-0.579
ZNF813 (zinc finger protein 813),3,-1.11
P2RY8 (P2Y receptor family member 8),1,-0.605
P2RY8 (P2Y receptor family member 8),2,-0.344
P2RY8 (P2Y receptor family member 8),3,-0.0679
SLC22A24,1,-0.164
SLC22A24,2,1.69
SLC22A24,3,0.832
LOC730338,1,0.178
LOC730338,2,0.129
LOC730338,3,0.199
DLAT (dihydrolipoamide S-acetyltransferase),1,-0.0459
DLAT (dihydrolipoamide S-acetyltransferase),2,1.35
DLAT (dihydrolipoamide S-acetyltransferase),3,-0.706
PPIAP8 (peptidylprolyl isomerase A pseudogene 8),1,-1.07
PPIAP8 (peptidylprolyl isomerase A pseudogene 8),2,-0.571
PPIAP8 (peptidylprolyl isomerase A pseudogene 8),3,0.716
RPS6KA3 (ribosomal protein S6 kinase A3),1,0.181
RPS6KA3 (ribosomal protein S6 kinase A3),2,-0.923
RPS6KA3 (ribosomal protein S6 kinase A3),3,-1.02
MEIS1-AS3 (MEIS1 antisense RNA 3),1,-0.0939
MEIS1-AS3 (MEIS1 antisense RNA 3),2,-0.985
MEIS1-AS3 (MEIS1 antisense RNA 3),3,-0.323
RHOT1 (ras homolog family member T1),1,2.54
RHOT1 (ras homolog family member T1),2,-1.11
RHOT1 (ras homolog family member T1),3,2.44
OR6B3 (olfactory receptor family 6 subfamily B member 3),1,-0.345
OR6B3 (olfactory receptor family 6 subfamily B member 3),2,1.13
OR6B3 (olfactory receptor family 6 subfamily B member 3),3,0.398
POP4 (POP4 ribonuclease P/MRP subunit),1,-0.0709
POP4 (POP4 ribonuclease P/MRP subunit),2,-0.725
POP4 (POP4 ribonuclease P/MRP subunit),3,-0.972
RIOK1 (RIO kinase 1),1,0.291
RIOK1 (RIO kinase 1),2,1.21
RIOK1 (RIO kinase 1),3,2.05
TMEM200A (transmembrane protein 200A),1,-0.00999
TMEM200A (transmembrane protein 200A),2,1.46
TMEM200A (transmembrane protein 200A),3,0.158
